Laboratory results published in the supplement of paper PMC12889115.
This is one part of the list. Values are raw readings; no control value is given beside them.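 First-pass screen: polymyxin B was added at a level that permeabilizes the Salmonella outer membrane while sparing the inner membrane. DMSO wells, with and without polymyxin B, defined maximum growth. Because plates differed from one another, each plate's data were ranked separately and the compounds with the lowest OD600 were carried forward as hits.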

Test system: Salmonella enterica serovar Typhimurium SL1344
Test: bacterial growth OD600 after 18 h with compound and polymyxin B; higher = more bacterial growth (less inhibition)
Conditions: 50 µM, Mueller-Hinton broth

SMILES	bacterial growth OD600 (polymyxin B 0.75 µg/mL)	bacterial growth OD600 (polymyxin B 1 µg/mL)
COc1cccc(C(=O)N2CCc3c(cnc(C)c3CNC(=O)Cc3ccsc3)C2)c1OC	0.757	
CN(Cc1ccccn1)C(=O)C1CCCN(C2CCN(Cc3ccccc3)CC2)C1 (stereo not given)	0.707	
FC(F)Oc1ccc(CN2CCOc3ccc(CN4CCC(Oc5cccnc5)CC4)cc3C2)cc1	0.402	
O=C1CC(NCc2ncc[nH]2)CN1Cc1cccc2ccccc12 (stereo not given)		0.924
c1ccc(OCc2noc(-c3ccc(NCc4cccnc4)nc3)n2)cc1		0.704
CNC(=O)CC(c1ccccc1)c1ccccc1Cl (stereo not given)		0.776
O=C(NCCN1CCOCC1)c1ccc(N2CCC(NCc3cccc(-n4cccn4)c3)CC2)cc1	0.821	
COCc1ccc(CN2CCCC(CNS(=O)(=O)N(C)C)C2)o1 (stereo not given)	0.813	
Cc1ccccc1C1(CC(=O)N2CCN(C3CCCC3)CC2)CC(=O)N(Cc2cccnc2)C1=O (stereo not given)	0.778	
CSc1ccccc1C(=O)N1CCOc2ccc(CN3CCN(c4ccccc4)CC3)cc2C1	0.007	
O=C([C@H]1C[C@@H]2C=C[C@H]1C2)N1CCc2onc(-c3cccc(F)c3)c2C1	0.24	
CC(=O)c1cccc(OCc2cc(C(=O)N(C)CC3CCCCO3)no2)c1 (stereo not given)		0.939
COc1ccc(CN2C(=O)O[C@@H]3CN(Cc4ccc(C)s4)C[C@@H]32)cc1OC	0.721	
COCCN(C)C(=O)c1coc(COc2cccc(F)c2)n1		1.02
O=C(CCc1ccc(F)c(F)c1)NC1CCCN(CCc2ccccc2)C1 (stereo not given)		0.773
Cc1ccccc1CCN1CCC(CN(C(=O)CN2CCOC2=O)C2CCCC2)CC1		0.844
COc1ccc(OC)c(C2CCN(Cc3nc(-c4ccc5c(c4)OCO5)no3)C2)c1 (stereo not given)		0.856
COc1ccc(NC2CCCN(C(=O)CSc3ccccc3)C2)cc1OC (stereo not given)		0.843
CCOC(=O)C1CCN(C2CCN(c3ccc(C(=O)NCc4ccccc4F)cc3)CC2)CC1	0.759	
O=C(NCc1cccc(F)c1F)C1CCC(=O)N(C2CC2)C1 (stereo not given)		0.838

Retrieved by structure from above:
SMILES	bacterial growth OD600 (polymyxin B 0.75 µg/mL)	bacterial growth OD600 (polymyxin B 1 µg/mL)
CSc1ccccc1C(=O)N1CCOc2ccc(CN3CCN(c4ccccc4)CC3)cc2C1	0.007	
O=C(NCc1cccc(F)c1F)C1CCC(=O)N(C2CC2)C1 (stereo not given)		0.838
